No constants are given. Whether binding was seen depends on the method and setting. Binding seen in cells or lysates may run through a third protein. Some results given as binding are weak or reduced against the parent protein; the word gives no strength. For some assays here: Tags and fused reporters may be left off the sequences shown.
Experiments:
[1] = biological target: MSMEG_5634-His6 (M. smegmatis) (UniProt A0R3Y0); experiment: pull-down
[2] = biological target: His6-tagged MSMEG_5635 (M. smegmatis) (UniProt A0R3Y1); experiment: pull-down; […]; 50 mM Tris, 150 mM NaCl, pH 7.0; […]
His6-tagged Pks13 = His6-tagged Pks13 (UniProt A0R617); experiment: as above
His6-tagged KasA = His6-tagged KasA (UniProt A0R0B4); experiment: as above
Flag-Rv2801a = biological target: T1, Flag-Rv2801a (UniProt P0CL61); experiment: as above
T1 sequence: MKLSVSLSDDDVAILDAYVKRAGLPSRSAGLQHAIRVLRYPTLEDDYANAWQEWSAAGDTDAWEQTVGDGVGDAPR

By UniProt entry, the sequences of proteins in these tests, tags left out.
UniProt A0R617: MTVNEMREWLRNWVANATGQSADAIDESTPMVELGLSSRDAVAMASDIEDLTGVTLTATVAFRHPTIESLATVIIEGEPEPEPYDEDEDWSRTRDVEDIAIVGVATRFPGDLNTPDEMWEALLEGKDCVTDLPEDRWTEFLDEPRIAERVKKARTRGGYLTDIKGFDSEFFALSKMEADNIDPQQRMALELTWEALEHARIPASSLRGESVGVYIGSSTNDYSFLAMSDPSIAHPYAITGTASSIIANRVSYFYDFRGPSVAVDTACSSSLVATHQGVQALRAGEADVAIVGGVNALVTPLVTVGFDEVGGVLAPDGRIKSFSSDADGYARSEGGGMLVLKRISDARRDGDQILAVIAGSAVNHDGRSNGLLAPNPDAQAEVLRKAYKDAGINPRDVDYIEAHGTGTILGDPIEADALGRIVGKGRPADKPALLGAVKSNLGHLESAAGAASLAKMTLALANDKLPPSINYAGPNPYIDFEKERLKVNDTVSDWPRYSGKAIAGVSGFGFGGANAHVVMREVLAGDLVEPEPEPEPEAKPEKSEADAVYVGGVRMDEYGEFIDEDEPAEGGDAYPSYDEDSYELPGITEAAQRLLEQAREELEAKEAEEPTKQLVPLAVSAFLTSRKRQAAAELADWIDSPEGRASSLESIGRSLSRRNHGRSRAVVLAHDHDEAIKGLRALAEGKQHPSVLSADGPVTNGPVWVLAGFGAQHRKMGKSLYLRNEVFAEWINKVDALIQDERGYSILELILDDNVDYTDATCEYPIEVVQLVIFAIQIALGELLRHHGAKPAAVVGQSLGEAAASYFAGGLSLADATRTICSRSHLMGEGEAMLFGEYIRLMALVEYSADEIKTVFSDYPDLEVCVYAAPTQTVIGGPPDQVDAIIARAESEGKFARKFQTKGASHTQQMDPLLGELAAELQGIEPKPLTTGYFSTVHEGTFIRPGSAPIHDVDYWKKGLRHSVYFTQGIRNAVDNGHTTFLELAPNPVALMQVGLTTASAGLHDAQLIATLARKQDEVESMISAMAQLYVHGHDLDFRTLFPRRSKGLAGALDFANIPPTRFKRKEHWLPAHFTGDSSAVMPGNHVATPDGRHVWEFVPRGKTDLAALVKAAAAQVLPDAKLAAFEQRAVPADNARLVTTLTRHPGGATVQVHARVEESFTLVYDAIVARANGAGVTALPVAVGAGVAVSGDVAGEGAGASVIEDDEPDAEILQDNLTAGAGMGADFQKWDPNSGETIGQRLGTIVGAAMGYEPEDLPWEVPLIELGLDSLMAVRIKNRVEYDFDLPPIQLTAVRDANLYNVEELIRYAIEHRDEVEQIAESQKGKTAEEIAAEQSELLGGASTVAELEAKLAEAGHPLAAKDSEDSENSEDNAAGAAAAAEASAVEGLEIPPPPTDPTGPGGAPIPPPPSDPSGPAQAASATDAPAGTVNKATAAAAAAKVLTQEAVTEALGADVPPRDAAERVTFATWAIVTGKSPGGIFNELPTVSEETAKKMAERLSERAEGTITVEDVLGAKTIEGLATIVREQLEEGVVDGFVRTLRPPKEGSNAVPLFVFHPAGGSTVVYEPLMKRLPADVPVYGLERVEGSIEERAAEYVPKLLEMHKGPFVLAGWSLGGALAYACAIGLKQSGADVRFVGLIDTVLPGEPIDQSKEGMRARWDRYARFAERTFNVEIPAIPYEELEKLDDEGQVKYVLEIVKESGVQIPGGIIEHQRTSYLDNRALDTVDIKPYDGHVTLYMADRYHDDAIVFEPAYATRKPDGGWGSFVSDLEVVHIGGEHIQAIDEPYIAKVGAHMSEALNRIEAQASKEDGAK
UniProt A0R0B4: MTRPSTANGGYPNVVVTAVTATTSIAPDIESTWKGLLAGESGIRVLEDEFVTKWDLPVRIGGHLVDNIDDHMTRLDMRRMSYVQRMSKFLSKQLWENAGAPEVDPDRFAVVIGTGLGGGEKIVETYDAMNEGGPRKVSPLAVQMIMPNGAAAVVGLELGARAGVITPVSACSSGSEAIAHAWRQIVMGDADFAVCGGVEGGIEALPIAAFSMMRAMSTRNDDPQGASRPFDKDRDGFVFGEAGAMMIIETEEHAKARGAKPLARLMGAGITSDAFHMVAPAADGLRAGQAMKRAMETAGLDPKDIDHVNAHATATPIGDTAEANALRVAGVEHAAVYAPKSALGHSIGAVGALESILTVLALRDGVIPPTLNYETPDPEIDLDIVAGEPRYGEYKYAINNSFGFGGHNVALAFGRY

With “AcpM (S41A)-Flag (from UniProt A0R0B3 1-99)” the binding [1] was “no binding”.

For “Flag-tagged MSMEG_5634 (from UniProt A0R3Y0 1-147)”, the binding [2] was “no binding” and the binding (His6-tagged Pks13) was “binds”.

“Flag-tagged MSMEG_5634 (W30A) (from UniProt A0R3Y0 1-147)” was tested, and the binding (His6-tagged KasA) was “binds”.

B1: Rv2801c with a C-terminal His6 tag (protein, UniProt P71650 1-118)
chain: MMRRGEIWQVDLDPARGSEANNQRPAVVVSNDRANATATRLGRGVITVVPVTSNIAKVYPFQVLLSATTTGLQVDCKAQAEQIRSIATERLLRPIGRVSAAELAQLDEALKLHLDLWS
In the case of B1, the binding (Flag-Rv2801a) is reported as “binds”.
